In PubChem BioAssay AID1347423 (Functional Genomics Laboratory (NCATS/FGL), 2020):
Out of some 52,000 sequences screened, about 210 (0.4%) were called active.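 How the source made its calls: active means gene whose silencing raises cell survival under the drug, median off-target-corrected z-score across its silencing RNAs 2 or more; inactive means the rest.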 This is one part of the list.

Assay: Resistance to Poly (ADP-Ribose) Polymerase inhibitor: Gene Identification via Genome-wide siRNA Screen
Conditions: mouse BRCA2 R2336H ES cells, olaparib, CellTiter-Glo viability; active compounds read high
Method in brief: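 Genome-wide siRNA screen (3 siRNAs/gene, 20 nM) in mouse ES cells carrying hypomorphic BRCA2 R2336H; olaparib 500 nM added 48 h post-transfection, CellTiter-Glo viability 72 h later. Normalized to plate-median negative control; MAD z-scores, gene median, seed-adjusted.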
With GGAGAUGUUGCCAAAAACUTT against Sprr2d the z-score was inactive: 0.879. For GGGAAAUUGUGUAGCAGCUTT against Slc25a29, the z-score was inactive: 0.214. In the case of GGUUAAAGUCCUUCAGUAUTT against Tubb3, the z-score is reported as inactive: -0.338. In the case of GGCAAAGAGCAAAAUUUUATT against Rap2b, the z-score is reported as inactive: 0.937. In the case of GGCUUCAUAUUCUUUUCCCTT against Il31ra, the z-score is reported as inactive: 0.657. For CCUUUAGUUUACAGUAAGCTT against H2-M10.1, the z-score was inactive: 0.6. For CCUCCAUCGUAUUUGACAUTT against Slc29a4, the z-score was inactive: 0.352. With GGGACAAUAACACUGUGUCTT against Slc11a1 the z-score was inactive: -1.23. For GCUAUUCGAAUUCAUGCAUTT against Xpo1, the z-score was inactive: -1.72. With GGCAUGUGCUACUUACAUGTT against Ripk1 the z-score was inactive: -0.658. For GUCCCACACUGAUAAGAUUTT against Mlr1, the z-score was inactive: 1.96. With GGUAGUGAAAUUCUUAAAGTT against Snx10 the z-score was inactive: 0.485. With GGAACAGGAAUAACAUGACTT against V1re9 the z-score was inactive: 1.65. With CGGACAAUGCAGGUUCAUCTT against Negr1 the z-score was inactive: -0.664. In the case of GGAGACACUUACAUGCACGTT against Antxr1, the z-score is reported as inactive: -0.451. In the case of “GCUACAUUUACAAUGGAUUTT against 9930021J17Rik”, the z-score is reported as inactive: -0.269. In the case of “CGCGAAUAAACCAUUUCUGTT against A130023I24Rik”, the z-score is reported as inactive: -0.618. With GCUACAGAACCUGCUCUACTT against Fmip the z-score was inactive: -2.68. With “GCUGCACUUGAAAUCCGAGTT against C630028L02Rik” the z-score was inactive: 1.69. In the case of GGCAGACAGUGAGAUGACATT against Mapk12, the z-score is reported as inactive: -1.89. For GGUAUUCUGGCAAGACCACTT against Aatf, the z-score was inactive: -1.01. For GGGAAGUAUUCUGAAAUCUTT against Tsga13, the z-score was inactive: 0.437. For GGUAUCUUGCUUUCUGUGATT against Olfr847, the z-score was inactive: 0.00478. With GGAGGUGAGUAGUAUAGAATT against Pigr the z-score was inactive: -1.61. In the case of GCUCUUCCAACCACCUGUATT against Rtn4rl2, the z-score is reported as inactive: -1.08. With GGUUGUUUUGCACAAAUGUTT against Olfr512 the z-score was inactive: 0.754. For GGAUUUUCAAAGAGGACACTT against BC006933, the z-score was inactive: 0.609. For GAUGUCGAUGCAAAUUCAATT against Fxyd1, the z-score was inactive: 0.94. For GGUUUUCUUAAAAUAGGAGTT against Tat, the z-score was active: 3.69. For GGCACACGGUUUUCAUUAATT against Pcdhb5, the z-score was inactive: -0.354. With GGCUGACAGACAAGAUUGUTT against Tfb1m the z-score was inactive: 1.83. With GGAACAGACAGAGAACACATT against Tgm6 the z-score was inactive: -0.154. In the case of “GGGUCAUGAAACCUACCUUTT against 0610007P06Rik”, the z-score is reported as inactive: -1.02. For GGAGCACCUUCAGAAAGUUTT against Commd5, the z-score was inactive: -1.67. In the case of GCAUCGACAGUCUCUUCAUTT against Grinl1a, the z-score is reported as inactive: -0.258. For CCGACUAAUGCUAAAUCCATT against Nspc1, the z-score was inactive: -0.573. In the case of GGCAUCUGCAUUUGAUUAUTT against BC025546, the z-score is reported as inactive: -0.464. In the case of GGCAAAAACGCGAUGAAGATT against Sync, the z-score is reported as inactive: -0.38. For GGAAUGUCUCUCUGAAAUATT against Greb1, the z-score was inactive: 0.619. In the case of GGAGAAUGACAAGAACUGCTT against Asah3, the z-score is reported as inactive: 0.639. For GGAACUGGUGUCAUCUACATT against M6prbp1, the z-score was inactive: -1.68. For GGCAAAUCUGAACAACAUUTT against Agt, the z-score was inactive: -0.2. For GGUUCCUUAUUGGUUUCAGTT against Fpr-rs2, the z-score was inactive: 0.0955. With GGCUUUGAACACCAGUGAATT against Rpp21 the z-score was inactive: -0.285. With GCAGCUUGCUUGAUUCAAGTT against Iqcb1 the z-score was inactive: 0.815. For “GGCCCUGUGUCAAAUCAGUTT against 3110005P07Rik”, the z-score was inactive: 0.151. With “GCCACAGGUAUGAGAAUGATT against C130068O12Rik” the z-score was inactive: -0.208. With GGCAUCUAUUUCUGUGUCUTT against Rdh5 the z-score was inactive: -0.437. With GGAUCCAUAAUGUGCAAAATT against Musk the z-score was inactive: 0.701. For GGAGGUCCCUCAUUUCAAGTT against Grik4, the z-score was inactive: 2.86. In the case of GUGAAGAAAUGUUUGACACTT against Raet1b, the z-score is reported as inactive: 0.236. In the case of GCCUUCAAGACCACAUCCATT against Chst5, the z-score is reported as inactive: 0.739. In the case of GGUCGAUGCAAAGAUGCUGTT against Smoc1, the z-score is reported as inactive: 0.505. With CGAUAUCAAGAGUGCAUGATT against Gas6 the z-score was inactive: 0.513. With GCACAUAGAAACGUGUUGGTT against Fnbp1 the z-score was inactive: 0.895. With GGUGGAUAUUCCAUCUAUUTT against Snx14 the z-score was inactive: 0.189. In the case of GGGAGUCUCUUUGACAAUGTT against Dscr3, the z-score is reported as inactive: 0.323. With GGAAAGUACACAAAUGAACTT against Chi3l4 the z-score was inactive: 0.038. With CCUGUGCCUCGCGUCUUAATT against Gdf3 the z-score was inactive: -2.17. For GCAAUGGAAAAAUCCAGUUTT against Ecg2, the z-score was inactive: -1.81. With GGUCAAAAUAGUGUCCACCTT against Olfr628 the z-score was inactive: 0.199. With “GGCUCUGCACAACCUUCUATT against 4932435O22Rik” the z-score was inactive: 1.34. With “GGCCUGUUGAUUGCAUAUUTT against 2010106G01Rik” the z-score was inactive: -2.04. For GGUUGUAACAAACAUACUCTT against Sstr4, the z-score was inactive: 1.4. With “GGUCAUCUUACAGUUUAAATT against 1810031K02Rik” the z-score was inactive: 0.294. With GGCCAUCAGGUGCAAACUATT against Enc1 the z-score was inactive: 0.471. In the case of “GGAGAUGGUUAACCUCAGATT against D4Bwg0951e”, the z-score is reported as inactive: -0.341. With “CGUCUAUUCGUAAUGAUUUTT against 4930511M11Rik” the z-score was inactive: -1.46. In the case of “GCCAGGGUAACUCUCUAGATT against 9130008F23Rik”, the z-score is reported as inactive: -1.27. In the case of GGACCUCCGCAUACGAAGATT against Slc12a5, the z-score is reported as inactive: 2.44. In the case of “CCUGGAAUGUAUUUGUUAUTT against 6330571D19Rik”, the z-score is reported as inactive: 0.234. In the case of GCCGCUUAAGAGGGAUUAUTT against Mrpl15, the z-score is reported as inactive: -2.21. With GCUUUUACACUAAUCUAGCTT against Senp8 the z-score was inactive: -0.138. In the case of GGAAAAAUGUGGACUUCUUTT against Bhmt2, the z-score is reported as inactive: -0.709. With GGUCAUUCCCAAAAGCAAGTT against Erp29 the z-score was inactive: -0.821. With GGACAUUGCAUUGCUCAUGTT against Sec1 the z-score was inactive: -0.065. With CCAACUGUUUGAGCUCUAUTT against BC049806 the z-score was inactive: -1.36. With GGAGUUUGCCGGAAGACUCTT against Ntf3 the z-score was inactive: 1.85. In the case of GGUUCAGAAUUUAACCUUATT against Phc3, the z-score is reported as inactive: -0.98. For GGACUCACAGUUAAAAGUATT against Gtse1, the z-score was inactive: -0.688. In the case of “GGAAGUGGAAUAUGUCACCTT against F730004D16Rik”, the z-score is reported as inactive: -0.885. In the case of GGAAAGAAACUUUACUGAGTT against Olfr1437, the z-score is reported as inactive: -0.284. For “GGCUGACACACUUCUACAUTT against D630003M21”, the z-score was inactive: -1.1. For “GCCAGUGUCUUAAAAGUUUTT against C030046M14Rik”, the z-score was inactive: -0.715. With CCUAGUGGCUAUACAAAUATT against Rgn the z-score was inactive: 0.187. For “GAAGAAAUGAAGACACAAGTT against 1810007E14Rik”, the z-score was inactive: 0.801. In the case of GGCAAGAAGUAUUUCCAUGTT against Fcrl3, the z-score is reported as inactive: 1.09. In the case of GCUGAUAACCUGAUCAACGTT against Nars, the z-score is reported as inactive: -1.09. In the case of GGGAGUAUUACUCUAUUCUTT against BC043098, the z-score is reported as inactive: -0.679. For GGAAUGUGAGCUCAGAUGGTT against Arvcf, the z-score was inactive: 0.0911. For GCAGAUUCCUAUUAAAUGGTT against Fert2, the z-score was inactive: 0.971. For “GGGUUUAAUCAUGAUAGAATT against E130014J05Rik”, the z-score was active: 3.95. With “GCCCACGUCCUGGUUUAAUTT against 4632404H12Rik” the z-score was inactive: -0.461. For GCAAAGUCUAAACUUAGUCTT against Fchsd2, the z-score was inactive: -0.155. With “GCUCAACUUUCGAAUGAACTT against 1810057C19Rik” the z-score was inactive: 0.0652. With GGUGGUUGUCAUGACAGUCTT against Tcerg1l the z-score was inactive: -1.25. For GGAACAGGUUCAUUCAUUGTT against Nup160, the z-score was inactive: -2.52. For GGCUUAUGAGAACUUGGUGTT against Amot, the z-score was inactive: -0.129. In the case of GGAAAUAAAGUGAAUGAGGTT against Gtpbp4, the z-score is reported as inactive: 0.762. For GGAGGACUAUAACUAAGAGTT against Ifitm5, the z-score was inactive: -0.69. In the case of “GGUUCAACAAAACAGGCUUTT against 0610012A11Rik”, the z-score is reported as inactive: -2.01. For “GCUGUCUCGUCAUUUAAGATT against 4933427L07Rik”, the z-score was inactive: -0.157. In the case of GGAAUGAAGACAAUUGUACTT against Rnf36, the z-score is reported as inactive: -0.483. In the case of GGAGGAGUGAGUCCUGAGATT against Ifna13, the z-score is reported as inactive: -0.911.
